Our source for the binding values is publication PMC9561527.

In the experiment the target is T1, human phosphoglycerate kinase, isoform 1 (hPGK1), wild-type (human), P00558.
T1 chain: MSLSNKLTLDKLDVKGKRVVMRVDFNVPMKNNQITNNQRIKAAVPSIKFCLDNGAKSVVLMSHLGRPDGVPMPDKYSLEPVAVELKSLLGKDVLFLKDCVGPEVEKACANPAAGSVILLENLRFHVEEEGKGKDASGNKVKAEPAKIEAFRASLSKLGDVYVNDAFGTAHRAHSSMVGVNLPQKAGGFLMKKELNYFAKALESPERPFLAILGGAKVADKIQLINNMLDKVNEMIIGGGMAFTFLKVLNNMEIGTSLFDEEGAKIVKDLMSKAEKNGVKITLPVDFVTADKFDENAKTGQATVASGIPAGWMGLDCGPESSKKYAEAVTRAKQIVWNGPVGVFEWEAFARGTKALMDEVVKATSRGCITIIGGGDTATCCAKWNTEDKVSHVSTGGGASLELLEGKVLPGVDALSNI
Kind of experiment: SEC; Superdex 200 16/60, 20 mM HEPES-NaOH, 200 mM NaCl, pH 7.4, 1.5 mL/min, 25 °C; 4 mg of protein purified from IMAC loaded; elution volume compared with ovalbumin (44 kDa); both purified. Particulars: remark: other sources report otherwise.

No constants are given. Whether binding was seen depends on the method and setting.

B1: human phosphoglycerate kinase, isoform 1 (hPGK1), wild-type, P00558-1 1-417 (enzyme)
chain: T1 chain
In the case of B1, the binding entry is “no binding (tested: 4 mg of protein loaded)”.
